The values below come from publication doi:10.1101/2023.08.13.546412 (bioRxiv, 2023).

Results are given in words; binding and its absence hold for the method and conditions named. Some entries that bind do so weakly or less than the wild type. Where a sequence is shown, tags or fusion partners need not be part of it.

What all share (test): two-hybrid
The target in assay [1] is T1, TPR1-BD (TOPLESS-RELATED 1, yeast two-hybrid fusion) (Arabidopsis thaliana) (UniProt Q0WV90).
T1 sequence: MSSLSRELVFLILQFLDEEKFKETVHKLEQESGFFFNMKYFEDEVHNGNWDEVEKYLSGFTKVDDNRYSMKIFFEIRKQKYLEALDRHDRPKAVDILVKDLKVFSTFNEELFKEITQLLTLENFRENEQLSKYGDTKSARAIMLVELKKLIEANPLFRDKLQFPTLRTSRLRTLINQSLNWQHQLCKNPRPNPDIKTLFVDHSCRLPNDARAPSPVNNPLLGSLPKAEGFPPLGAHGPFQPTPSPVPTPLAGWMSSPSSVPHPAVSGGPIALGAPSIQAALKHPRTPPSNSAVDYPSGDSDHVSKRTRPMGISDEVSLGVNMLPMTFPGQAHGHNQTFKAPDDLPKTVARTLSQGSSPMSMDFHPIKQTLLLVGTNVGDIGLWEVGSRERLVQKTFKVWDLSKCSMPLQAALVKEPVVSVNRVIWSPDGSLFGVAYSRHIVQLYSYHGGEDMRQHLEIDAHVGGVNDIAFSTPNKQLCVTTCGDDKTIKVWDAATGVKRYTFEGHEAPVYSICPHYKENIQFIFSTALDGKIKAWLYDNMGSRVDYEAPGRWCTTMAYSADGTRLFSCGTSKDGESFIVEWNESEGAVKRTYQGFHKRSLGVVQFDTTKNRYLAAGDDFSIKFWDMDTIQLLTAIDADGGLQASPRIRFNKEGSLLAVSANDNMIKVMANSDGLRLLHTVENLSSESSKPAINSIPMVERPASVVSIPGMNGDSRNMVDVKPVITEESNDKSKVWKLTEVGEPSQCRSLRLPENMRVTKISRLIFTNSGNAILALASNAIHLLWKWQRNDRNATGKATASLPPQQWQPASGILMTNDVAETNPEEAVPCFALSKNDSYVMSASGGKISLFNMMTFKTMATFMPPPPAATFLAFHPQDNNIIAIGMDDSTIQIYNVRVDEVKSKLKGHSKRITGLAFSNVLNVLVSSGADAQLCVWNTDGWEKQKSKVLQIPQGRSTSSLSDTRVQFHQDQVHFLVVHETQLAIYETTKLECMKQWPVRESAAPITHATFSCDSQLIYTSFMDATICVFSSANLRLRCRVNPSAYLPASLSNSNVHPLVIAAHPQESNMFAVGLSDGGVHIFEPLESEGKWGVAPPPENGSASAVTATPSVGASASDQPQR

In assay [2] the target is T2, AtSK21-BD (Arabidopsis SHAGGY-like kinase 21, yeast two-hybrid fusion) (Arabidopsis thaliana) (UniProt Q39011).
T2 sequence: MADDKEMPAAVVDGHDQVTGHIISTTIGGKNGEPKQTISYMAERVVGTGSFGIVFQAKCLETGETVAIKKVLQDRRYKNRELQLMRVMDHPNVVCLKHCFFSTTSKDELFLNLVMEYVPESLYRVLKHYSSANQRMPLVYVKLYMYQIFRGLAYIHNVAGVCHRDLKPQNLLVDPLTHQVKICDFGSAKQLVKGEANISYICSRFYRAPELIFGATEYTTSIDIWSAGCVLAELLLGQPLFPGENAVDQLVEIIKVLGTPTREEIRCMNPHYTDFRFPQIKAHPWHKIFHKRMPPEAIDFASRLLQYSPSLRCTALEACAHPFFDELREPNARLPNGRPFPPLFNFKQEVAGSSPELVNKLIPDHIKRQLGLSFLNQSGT

The target in assay [3] is T3, AtSK11-BD (Arabidopsis SHAGGY-like kinase 11, yeast two-hybrid fusion) (Arabidopsis thaliana) (UniProt P43288).
T3 sequence: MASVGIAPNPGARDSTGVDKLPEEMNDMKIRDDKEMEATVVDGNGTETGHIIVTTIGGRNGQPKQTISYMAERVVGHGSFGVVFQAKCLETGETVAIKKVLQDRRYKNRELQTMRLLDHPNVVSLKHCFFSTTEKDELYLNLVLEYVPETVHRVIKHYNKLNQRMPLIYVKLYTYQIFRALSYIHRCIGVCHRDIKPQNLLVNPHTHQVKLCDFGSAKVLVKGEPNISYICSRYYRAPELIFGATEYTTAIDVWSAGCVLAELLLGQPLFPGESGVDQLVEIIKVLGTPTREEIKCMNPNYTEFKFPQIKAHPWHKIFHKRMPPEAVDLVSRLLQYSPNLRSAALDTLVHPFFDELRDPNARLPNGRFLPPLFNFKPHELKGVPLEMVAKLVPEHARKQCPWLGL

Assay [4] deals with T4, AtSK23-BD (Arabidopsis SHAGGY-like kinase 23, yeast two-hybrid fusion) (Arabidopsis thaliana) (UniProt Q39010).
T4 sequence: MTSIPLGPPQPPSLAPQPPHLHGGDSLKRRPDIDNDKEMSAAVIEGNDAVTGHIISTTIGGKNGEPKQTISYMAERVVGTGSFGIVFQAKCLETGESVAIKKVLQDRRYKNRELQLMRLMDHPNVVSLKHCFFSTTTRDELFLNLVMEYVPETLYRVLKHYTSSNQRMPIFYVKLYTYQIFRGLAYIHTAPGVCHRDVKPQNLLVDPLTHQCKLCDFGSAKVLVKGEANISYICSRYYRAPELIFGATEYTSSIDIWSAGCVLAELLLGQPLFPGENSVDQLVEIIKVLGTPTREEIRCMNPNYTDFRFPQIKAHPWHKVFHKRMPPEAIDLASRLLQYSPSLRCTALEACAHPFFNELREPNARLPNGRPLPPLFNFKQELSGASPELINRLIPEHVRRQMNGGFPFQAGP

B1: WOX5-AD (WUSCHEL-RELATED HOMEOBOX 5, yeast two-hybrid fusion) (protein, UniProt Q8H1D2 1-182)
chain: MSFSVKGRSLRGNNNGGTGTKCGRWNPTVEQLKILTDLFRAGLRTPTTDQIQKISTELSFYGKIESKNVFYWFQNHKARERQKRRKISIDFDHHHHQPSTRDVFEISEEDCQEEEKVIETLQLFPVNSFEDSNSKVDKMRARGNNQYREYIRETTTTSFSPYSSCGAEMEHPPPLDLRLSFL
For the molecule B1, the binding entry in assay [1] is recorded as “binds”; in assay [2], “binds weakly”; in assay [3] it was “no binding”; in assay [4], “binds weakly”.
